The values below come from article PMC7373899.

Amino acid sequences for entries named in this document (tags omitted). A change or cut given only in a name is not applied to a line headed by its entry.
UniProt P42224: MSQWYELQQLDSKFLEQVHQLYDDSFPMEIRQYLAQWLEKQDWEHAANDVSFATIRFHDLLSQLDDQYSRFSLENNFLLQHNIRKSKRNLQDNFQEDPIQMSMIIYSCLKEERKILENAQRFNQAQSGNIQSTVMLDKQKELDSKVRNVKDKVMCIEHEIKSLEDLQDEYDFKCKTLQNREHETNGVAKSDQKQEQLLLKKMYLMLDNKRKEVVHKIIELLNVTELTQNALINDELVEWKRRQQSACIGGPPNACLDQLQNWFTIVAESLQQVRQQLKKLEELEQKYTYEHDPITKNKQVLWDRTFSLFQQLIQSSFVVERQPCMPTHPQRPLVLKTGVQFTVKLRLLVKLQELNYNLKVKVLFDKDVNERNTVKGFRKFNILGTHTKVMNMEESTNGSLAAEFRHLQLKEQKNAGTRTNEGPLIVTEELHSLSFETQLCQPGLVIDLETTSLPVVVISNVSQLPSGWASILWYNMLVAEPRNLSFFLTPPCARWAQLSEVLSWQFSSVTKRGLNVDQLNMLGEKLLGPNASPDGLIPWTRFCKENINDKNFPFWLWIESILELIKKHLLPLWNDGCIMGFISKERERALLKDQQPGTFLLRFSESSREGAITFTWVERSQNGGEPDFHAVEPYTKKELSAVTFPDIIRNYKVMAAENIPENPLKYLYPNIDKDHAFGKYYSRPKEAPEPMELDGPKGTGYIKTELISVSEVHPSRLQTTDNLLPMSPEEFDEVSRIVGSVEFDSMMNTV

Construct, isoform or probe ends are uncertain for at least one entry. Where cells or extracts were used, other partners may take part.

The target in this data set is pSTAT1 homodimer (UniProt P42224). Nature of the data set: EMSA supershift. Particulars: nuclear lysate, 1 h after 1,400 pM IFNa, no prestimulation, complex much reduced after 280 pM prestimulation; 20 mM HEPES pH 7.9, 50 mM KCl, 1 mM MgCl2, 1 mM DTT, 0.1 mM EDTA, 5% glycerol, 200 ug/ml BSA, 1 ug poly[dI-dC], 5 ug nuclear lysate in 19 ul; 20 min on ice; protein in an extract; label: 32P 5' end (T4 PNK). Background: In EMSA bound probe runs differently from free probe, usually more slowly.

In the case of “CATTTCGGGGAAATCAGGC (double strand) [GAS-binding region of human IRF1 promoter]”, the binding result was “binds”.
